According to US20160228502A1:
No constants are given. Whether binding was seen depends on the method and setting. For some assays here: Binding seen in cells or lysates may run through a third protein. Some binding calls cover weakened binding; strength is not graded here. For some assays here: Sequences can lack the tags named with a protein. Each block holds one binder with its values, some of them ahead of it.

Sequences of proteins named here, by UniProt entry; tags and fusion partners are left off.
UniProt P11716: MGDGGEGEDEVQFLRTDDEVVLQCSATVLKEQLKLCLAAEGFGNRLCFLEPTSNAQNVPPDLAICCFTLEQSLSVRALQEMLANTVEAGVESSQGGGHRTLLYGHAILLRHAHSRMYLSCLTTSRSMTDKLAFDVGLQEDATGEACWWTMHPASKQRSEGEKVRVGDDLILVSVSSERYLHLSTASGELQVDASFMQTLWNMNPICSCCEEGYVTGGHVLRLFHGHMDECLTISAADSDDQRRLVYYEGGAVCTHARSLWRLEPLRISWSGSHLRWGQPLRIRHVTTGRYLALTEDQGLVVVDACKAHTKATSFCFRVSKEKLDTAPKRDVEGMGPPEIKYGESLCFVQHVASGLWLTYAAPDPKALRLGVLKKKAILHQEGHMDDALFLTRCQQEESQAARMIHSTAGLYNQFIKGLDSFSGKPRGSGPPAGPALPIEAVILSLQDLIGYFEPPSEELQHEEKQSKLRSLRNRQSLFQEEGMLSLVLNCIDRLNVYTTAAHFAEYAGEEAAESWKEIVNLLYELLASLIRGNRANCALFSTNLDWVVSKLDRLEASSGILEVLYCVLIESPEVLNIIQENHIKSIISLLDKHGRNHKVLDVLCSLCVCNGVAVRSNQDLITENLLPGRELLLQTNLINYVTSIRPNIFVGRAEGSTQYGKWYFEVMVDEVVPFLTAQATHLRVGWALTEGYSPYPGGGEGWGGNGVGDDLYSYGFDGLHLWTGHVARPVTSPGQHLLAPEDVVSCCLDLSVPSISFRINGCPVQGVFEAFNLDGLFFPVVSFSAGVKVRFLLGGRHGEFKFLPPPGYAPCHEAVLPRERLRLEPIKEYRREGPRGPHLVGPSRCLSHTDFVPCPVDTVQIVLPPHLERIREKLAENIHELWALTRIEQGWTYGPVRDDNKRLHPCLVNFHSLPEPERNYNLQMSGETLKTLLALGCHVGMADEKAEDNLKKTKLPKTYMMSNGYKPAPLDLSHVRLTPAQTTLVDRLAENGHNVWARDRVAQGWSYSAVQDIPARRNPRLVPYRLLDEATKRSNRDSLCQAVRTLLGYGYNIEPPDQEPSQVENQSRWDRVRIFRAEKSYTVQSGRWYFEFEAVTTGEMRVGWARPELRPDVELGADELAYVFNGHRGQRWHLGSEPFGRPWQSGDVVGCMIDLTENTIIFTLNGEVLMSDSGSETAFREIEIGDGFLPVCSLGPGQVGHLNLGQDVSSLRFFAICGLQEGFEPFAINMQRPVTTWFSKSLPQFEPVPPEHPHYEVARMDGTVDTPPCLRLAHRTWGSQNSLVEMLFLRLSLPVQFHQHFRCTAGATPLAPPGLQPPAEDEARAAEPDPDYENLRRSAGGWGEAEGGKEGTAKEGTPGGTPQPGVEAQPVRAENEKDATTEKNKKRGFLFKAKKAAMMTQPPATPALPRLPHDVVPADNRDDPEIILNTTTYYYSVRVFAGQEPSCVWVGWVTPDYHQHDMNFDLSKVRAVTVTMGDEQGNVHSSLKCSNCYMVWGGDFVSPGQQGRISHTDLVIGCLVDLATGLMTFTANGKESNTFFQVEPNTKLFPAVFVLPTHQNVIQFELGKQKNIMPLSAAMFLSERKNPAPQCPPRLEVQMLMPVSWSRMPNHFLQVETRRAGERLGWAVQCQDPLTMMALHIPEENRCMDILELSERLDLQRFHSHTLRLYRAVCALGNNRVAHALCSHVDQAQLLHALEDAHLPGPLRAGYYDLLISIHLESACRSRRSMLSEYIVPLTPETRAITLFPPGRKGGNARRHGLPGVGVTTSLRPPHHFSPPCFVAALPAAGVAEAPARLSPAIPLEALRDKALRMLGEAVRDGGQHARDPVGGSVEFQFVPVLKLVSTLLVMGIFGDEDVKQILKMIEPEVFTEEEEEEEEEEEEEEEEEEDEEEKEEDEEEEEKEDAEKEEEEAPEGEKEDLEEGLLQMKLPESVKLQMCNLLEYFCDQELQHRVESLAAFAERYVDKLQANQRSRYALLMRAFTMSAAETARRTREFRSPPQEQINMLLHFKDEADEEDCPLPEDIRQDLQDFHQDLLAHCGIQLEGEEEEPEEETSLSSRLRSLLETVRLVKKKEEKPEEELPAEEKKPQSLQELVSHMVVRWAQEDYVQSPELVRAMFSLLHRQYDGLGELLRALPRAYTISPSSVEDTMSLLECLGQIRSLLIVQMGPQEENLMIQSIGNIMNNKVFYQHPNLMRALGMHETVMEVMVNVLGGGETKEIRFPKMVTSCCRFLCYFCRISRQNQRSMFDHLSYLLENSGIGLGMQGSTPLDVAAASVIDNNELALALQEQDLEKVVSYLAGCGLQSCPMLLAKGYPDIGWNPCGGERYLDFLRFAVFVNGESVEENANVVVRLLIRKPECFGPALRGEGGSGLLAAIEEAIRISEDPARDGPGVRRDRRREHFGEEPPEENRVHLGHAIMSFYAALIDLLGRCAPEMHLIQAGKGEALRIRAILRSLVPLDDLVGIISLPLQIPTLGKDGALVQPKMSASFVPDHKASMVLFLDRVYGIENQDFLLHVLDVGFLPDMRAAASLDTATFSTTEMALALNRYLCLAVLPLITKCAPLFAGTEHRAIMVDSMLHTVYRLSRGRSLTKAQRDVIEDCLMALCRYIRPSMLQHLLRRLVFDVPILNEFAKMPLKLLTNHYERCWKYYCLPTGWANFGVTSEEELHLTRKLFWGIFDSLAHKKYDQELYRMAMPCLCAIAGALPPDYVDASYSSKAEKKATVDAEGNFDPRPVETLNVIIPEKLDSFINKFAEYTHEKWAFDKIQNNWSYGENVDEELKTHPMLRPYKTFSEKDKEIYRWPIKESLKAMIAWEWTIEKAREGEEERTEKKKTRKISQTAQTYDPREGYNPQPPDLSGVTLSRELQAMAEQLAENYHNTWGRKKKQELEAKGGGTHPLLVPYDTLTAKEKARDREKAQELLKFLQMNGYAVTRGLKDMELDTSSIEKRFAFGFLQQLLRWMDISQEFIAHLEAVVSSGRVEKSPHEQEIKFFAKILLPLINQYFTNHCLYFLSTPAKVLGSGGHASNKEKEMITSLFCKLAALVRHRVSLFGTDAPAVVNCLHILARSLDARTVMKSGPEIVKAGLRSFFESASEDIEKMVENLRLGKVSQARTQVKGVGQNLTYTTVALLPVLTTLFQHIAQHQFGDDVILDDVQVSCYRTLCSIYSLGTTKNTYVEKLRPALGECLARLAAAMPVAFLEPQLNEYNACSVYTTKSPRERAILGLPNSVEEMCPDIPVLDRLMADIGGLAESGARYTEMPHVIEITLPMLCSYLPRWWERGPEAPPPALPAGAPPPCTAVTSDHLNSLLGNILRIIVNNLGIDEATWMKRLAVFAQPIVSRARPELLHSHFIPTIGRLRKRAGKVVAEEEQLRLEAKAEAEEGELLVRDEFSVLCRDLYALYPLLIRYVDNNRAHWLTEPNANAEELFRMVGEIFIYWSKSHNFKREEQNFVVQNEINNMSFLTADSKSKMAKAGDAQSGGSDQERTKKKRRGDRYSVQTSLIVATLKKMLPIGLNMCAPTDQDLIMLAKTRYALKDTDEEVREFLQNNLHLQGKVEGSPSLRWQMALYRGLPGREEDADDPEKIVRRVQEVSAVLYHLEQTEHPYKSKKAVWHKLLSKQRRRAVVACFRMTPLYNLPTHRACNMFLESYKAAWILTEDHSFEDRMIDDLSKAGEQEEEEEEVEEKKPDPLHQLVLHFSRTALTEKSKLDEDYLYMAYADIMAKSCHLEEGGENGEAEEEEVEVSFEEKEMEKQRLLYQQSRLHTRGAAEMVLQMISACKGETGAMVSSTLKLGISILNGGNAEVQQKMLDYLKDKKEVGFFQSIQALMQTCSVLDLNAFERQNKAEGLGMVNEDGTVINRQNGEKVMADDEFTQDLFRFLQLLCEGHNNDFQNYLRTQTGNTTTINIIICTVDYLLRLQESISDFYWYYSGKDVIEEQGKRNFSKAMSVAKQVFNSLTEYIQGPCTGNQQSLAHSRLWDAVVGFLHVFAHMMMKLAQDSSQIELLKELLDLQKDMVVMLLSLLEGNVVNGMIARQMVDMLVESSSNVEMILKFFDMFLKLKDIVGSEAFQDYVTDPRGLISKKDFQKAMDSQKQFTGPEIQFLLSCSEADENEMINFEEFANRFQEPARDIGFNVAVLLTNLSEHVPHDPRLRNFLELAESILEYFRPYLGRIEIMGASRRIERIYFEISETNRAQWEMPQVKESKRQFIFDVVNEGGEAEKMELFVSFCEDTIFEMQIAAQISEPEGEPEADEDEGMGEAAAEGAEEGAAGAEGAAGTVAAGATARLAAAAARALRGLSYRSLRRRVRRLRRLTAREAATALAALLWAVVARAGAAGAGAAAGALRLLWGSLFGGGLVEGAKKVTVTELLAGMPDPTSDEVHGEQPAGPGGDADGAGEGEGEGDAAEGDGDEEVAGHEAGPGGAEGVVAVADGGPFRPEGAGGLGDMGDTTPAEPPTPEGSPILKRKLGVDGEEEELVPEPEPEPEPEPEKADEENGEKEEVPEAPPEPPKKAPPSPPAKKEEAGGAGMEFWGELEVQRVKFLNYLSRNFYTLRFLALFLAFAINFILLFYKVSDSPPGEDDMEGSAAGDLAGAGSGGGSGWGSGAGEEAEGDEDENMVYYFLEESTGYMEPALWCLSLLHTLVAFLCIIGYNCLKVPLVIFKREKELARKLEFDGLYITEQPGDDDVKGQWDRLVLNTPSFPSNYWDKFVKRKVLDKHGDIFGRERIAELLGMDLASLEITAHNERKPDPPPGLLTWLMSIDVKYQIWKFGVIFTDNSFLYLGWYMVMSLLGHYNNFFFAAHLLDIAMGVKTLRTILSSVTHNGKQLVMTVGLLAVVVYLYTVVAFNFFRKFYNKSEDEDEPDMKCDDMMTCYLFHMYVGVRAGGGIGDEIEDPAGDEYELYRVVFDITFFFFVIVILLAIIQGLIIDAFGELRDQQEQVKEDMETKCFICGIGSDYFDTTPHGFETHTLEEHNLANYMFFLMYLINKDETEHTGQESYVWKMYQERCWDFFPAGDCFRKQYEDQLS
UniProt P04191: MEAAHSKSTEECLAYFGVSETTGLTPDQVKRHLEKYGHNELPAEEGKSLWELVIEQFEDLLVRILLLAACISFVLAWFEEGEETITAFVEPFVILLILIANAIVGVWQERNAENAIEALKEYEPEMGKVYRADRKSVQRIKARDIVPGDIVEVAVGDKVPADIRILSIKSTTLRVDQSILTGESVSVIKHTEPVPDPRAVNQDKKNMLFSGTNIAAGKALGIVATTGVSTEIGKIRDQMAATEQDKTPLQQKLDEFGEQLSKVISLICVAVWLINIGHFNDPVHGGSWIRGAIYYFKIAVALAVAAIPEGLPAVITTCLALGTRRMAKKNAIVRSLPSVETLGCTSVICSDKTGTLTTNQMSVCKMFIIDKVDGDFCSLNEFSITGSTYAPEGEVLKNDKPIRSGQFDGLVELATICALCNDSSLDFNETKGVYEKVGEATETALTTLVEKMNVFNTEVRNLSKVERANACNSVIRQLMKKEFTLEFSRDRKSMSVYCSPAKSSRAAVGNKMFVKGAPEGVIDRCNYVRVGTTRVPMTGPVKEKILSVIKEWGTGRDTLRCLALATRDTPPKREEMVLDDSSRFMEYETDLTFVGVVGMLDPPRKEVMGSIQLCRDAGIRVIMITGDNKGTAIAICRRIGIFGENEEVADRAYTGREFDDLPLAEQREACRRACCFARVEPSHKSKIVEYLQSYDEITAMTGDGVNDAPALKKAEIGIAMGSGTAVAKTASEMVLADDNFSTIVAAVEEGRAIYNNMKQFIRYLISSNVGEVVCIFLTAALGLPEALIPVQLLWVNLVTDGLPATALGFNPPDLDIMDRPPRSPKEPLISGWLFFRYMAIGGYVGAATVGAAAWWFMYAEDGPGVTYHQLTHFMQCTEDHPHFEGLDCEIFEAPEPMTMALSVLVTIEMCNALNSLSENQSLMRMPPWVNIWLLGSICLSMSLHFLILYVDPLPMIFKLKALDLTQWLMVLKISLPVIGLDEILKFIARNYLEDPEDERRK

Key:
[1] = target: Ryanodine receptor 1 (RyR1), native, rabbit skeletal muscle SR vesicles (rabbit) (UniProt P11716); test: coIP with antibodies to JPH1 from rabbit SR vesicles
[2] = target: Ryanodine receptor 1 (RyR1), native, rabbit skeletal muscle SR vesicles (rabbit) (UniProt P11716); test: coIP with antibody to JPH1 from rabbit SR vesicles
SERCA1-CFP (rabbit) = SERCA1-CFP (rabbit) (UniProt P04191); test: AFRET in COS7 cells
[3] = target: sarco(endo)plasmic reticulum Ca^2+-ATPase 1 (SERCA1) (rabbit) (UniProt P04191); test: coIP with antibodies to SERCA1 from COS7 extracts, titration of sAnk1-FLAG
[4] = target: sarco(endo)plasmic reticulum Ca^2+-ATPase 1 (SERCA1) (rabbit) (UniProt P04191); test: coIP with antibodies to SERCA1 from COS7 extracts

binding [1]: binds
binding [2]: binds
B1: junctophilin-1 (JPH1), native, rabbit skeletal muscle SR vesicles (protein, UniProt Q9GKY8 1-662, looked up)
chain: MTGGRFDFDDGGTYCGGWEEGKAHGHGICTGPKGQGEYSGSWSHGFEVVGGYTWPSGNTYQGYWAQGKRHGLGVETKGKWMYRGEWSHGFKGRYGVRQSLCTPARYEGTWSNGLQDGYGVETYGDGGTYQGQWAGGMRHGYGVRQSVPYGMATVIRSPLRTSLASLRSEQSNGSVLHDAAAAADTPTGTRGGFVLNFHADAELAGKKKGGLFRRGSLLGSMKLRKSESKSSISSKRSSVRSDAAMSRISSSDANSTISFGDVDCDFCPVEDHVDATTTETYMGEWKNDKRNGFGISERSNGMKYEGEWANNKRHGYGCTVFPDGSKEEGKYKNNILVRGIRKQLIPIRNTKTREKVDRAIEGAQRAAAMARTKVEIANSRTAHARAKADAADQAALAARQECDIARAVARELSPDFYQPGPDYIKQRLQEGVDAKENPEEKVPAKPPTPKESPHFYRKGTTPPGSPEASPKYSRSPQPSPPKPAKKQNPSSGARLNQDKRGVAEEQVTAIVNKPLTSKAPTKEVGAAVSQSKYSGRHHVPNPSNGELHSQYHGYYVKLHAPQHPPVDAEDDDRSSPSSSALVHKPSPNKWSPPKSVTKPVAKESKAEPKAKKSELAIPKNPASNDSCPSMEREANSGPNSVMIVLVMLLNIGLAILFVHFLT

binding (SERCA1-CFP (rabbit)): binds
B2: SLN-YFP (peptide, rabbit, UniProt P42532 1-31, looked up, not shown: large carriers)
chain: MERSTRELCLNFTVVLITVILIWLLVRSYQY

binding [3]: binds
binding [4]: binds
B3: N-terminal FLAG-tagged sarcolipin (NF-SLN) (peptide, rabbit, UniProt P42532 1-31, looked up, not shown: small tags and cut ends)
chain: MERSTRELCLNFTVVLITVILIWLLVRSYQY
